Binding data for 1 substance are collected here from PMC8500422.

The target of one assay is T1, EGFP-fused BROMI (human) (UniProt Q96NH3).
T1 sequence: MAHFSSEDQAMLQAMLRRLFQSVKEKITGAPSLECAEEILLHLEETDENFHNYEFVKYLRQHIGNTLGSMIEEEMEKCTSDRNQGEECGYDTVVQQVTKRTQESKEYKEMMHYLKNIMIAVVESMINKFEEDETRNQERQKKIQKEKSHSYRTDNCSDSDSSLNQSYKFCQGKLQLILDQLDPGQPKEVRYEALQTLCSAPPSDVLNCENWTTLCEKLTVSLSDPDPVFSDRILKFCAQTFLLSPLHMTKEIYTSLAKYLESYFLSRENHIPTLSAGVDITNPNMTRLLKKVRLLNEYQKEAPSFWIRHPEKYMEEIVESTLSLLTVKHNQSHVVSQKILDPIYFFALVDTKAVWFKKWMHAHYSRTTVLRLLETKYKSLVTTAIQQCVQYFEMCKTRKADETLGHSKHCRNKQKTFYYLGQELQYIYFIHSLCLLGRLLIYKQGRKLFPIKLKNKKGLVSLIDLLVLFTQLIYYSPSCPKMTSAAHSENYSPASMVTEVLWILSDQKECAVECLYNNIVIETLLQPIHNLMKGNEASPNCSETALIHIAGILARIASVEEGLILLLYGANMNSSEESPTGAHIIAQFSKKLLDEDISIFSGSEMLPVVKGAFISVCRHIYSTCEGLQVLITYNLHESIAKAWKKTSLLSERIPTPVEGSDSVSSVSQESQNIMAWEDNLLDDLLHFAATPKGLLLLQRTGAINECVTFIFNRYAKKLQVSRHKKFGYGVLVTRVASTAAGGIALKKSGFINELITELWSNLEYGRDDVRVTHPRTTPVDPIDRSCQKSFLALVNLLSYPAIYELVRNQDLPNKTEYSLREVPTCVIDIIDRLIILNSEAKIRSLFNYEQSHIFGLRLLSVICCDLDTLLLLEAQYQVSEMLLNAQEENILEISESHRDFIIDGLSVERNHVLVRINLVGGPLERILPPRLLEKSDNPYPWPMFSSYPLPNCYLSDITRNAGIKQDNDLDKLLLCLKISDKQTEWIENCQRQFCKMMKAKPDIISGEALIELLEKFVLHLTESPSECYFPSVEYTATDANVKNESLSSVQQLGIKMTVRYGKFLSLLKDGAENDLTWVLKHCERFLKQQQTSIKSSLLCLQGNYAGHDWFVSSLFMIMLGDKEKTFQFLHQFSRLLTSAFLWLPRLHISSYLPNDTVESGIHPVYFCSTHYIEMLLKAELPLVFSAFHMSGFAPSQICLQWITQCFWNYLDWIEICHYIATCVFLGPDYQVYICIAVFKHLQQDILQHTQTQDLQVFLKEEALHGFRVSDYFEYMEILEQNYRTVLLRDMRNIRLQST
The assay can be described thus: co-IP; visible immunoprecipitation (VIP) assay: lysates of HEK293T cells coexpressing EGFP-fused and mChe-fused proteins (HMDEKN buffer: 10 mM HEPES pH 7.4, 5 mM MgSO4, 1 mM DTT, 0.5 mM EDTA, 25 mM KCl, 0.05% NP-40), precipitated with GST-tagged anti-GFP Nb on glutathione–Sepharose 4B beads, 1 h at 4°C; red fluorescence on the washed beads observed under a microscope.

Assay [1] concerns the target T2, EGFP-fused BROMI(243–1,298) (human) (UniProt Q96NH3).
T2 sequence: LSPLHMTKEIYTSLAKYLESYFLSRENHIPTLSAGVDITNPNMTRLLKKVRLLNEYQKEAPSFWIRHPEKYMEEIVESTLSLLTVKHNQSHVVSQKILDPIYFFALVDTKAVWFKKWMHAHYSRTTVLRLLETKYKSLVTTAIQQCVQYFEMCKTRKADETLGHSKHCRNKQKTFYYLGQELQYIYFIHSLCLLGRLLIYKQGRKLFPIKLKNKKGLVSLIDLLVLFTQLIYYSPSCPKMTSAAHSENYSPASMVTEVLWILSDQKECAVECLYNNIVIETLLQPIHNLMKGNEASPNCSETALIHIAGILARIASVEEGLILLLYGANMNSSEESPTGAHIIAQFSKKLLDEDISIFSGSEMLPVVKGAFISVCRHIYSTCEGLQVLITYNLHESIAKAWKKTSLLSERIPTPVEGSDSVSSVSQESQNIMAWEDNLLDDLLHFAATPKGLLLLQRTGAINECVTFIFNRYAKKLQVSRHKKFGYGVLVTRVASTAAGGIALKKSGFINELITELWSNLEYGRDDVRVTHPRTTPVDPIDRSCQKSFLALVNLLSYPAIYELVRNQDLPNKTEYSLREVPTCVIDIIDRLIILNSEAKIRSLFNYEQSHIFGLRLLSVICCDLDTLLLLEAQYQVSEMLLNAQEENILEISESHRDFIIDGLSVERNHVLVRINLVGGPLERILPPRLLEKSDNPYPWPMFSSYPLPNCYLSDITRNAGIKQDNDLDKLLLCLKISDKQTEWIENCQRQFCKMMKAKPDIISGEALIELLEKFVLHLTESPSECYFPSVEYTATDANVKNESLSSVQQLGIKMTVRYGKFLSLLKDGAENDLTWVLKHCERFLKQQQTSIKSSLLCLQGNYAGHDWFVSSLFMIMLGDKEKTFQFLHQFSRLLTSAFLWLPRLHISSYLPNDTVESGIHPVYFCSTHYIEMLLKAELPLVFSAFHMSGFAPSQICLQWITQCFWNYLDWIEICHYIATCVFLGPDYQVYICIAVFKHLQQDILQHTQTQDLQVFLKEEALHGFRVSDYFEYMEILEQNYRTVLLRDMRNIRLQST
The description is as above.

No constants are given. Whether binding was seen depends on the method and setting. Binding seen in cells or lysates may run through a third protein. Some results given as binding are weak or reduced against the parent protein; the word gives no strength. Where a sequence is shown, tags or fusion partners need not be part of it.

For CCRK-mChe (from UniProt Q8IZL9-1 1-346), the binding result (with EGFP-fused BROMI (human); in assay [1]) was “binds” throughout.
